# Data taken from patent US20240238383A1, “ANTI-OXIDANT CONTAINING PARTICLES AND METHODS OF USE” (University of lowa Research Foundation, priority 2021, published 2024).
# At least one compound was matched to its structure with a doubt left.
# Tests used:
# B4G12 CECs = test: RSL3/erastin-induced ferroptosis / cell death assay, cell viability by MTS, B4G12 CECs; format: cell-based, human
# Method: (§1) FIGS. 4A-4C. FECD CECs are more susceptible to ferroptosis than B4G12 control CECs. (A) Basal lipid peroxidation, as measured by C11 BODIPY, is 57% higher in cultured FECD CECs (N=3) than B4G12 cells (N=3). […] Cultured FECD CECs (N=6) also have 4.7-fold more TFR1 mRNA than B4G12 CECs (N=9), normalized to 18S. (C) Cultured FECD CECs (N=3) and B4G12 cells (N=3) were treated with 1 μM RSL3 to induce cell death via Fe-dependent ferroptosis. The cells were also treated with 100 μM of a Fe chelator, deferoxamine (DFO). Cell viability was measured using MTS assays over 8 hours.
# FIGS. 8A-8B. Nanoparticle targeting and efficacy. […] FITC-anti-αvβ3 labeled cells were detected and counted by flow cytometry and compared to a FITC-IgG control as well as unlabeled cells. […] After incubating another 24 hours (68 hours total), cell viability in each culture was quantified using MTS assays. […]
# (§2) Basal levels of lipid peroxidation and cytosolic Fe are higher in human FECD CECs than control CECs. […] One experiment assessed lipid peroxidation directly. Cultured FECD CECs and control CECs (B4G12 cells) were labeled with BODIPY and intensity was measured using flow cytometry. […] To determine whether Fe trafficking is affected in the context of FECD, TFR1 was quantified, which has been identified as an indicator of ferroptosis (Stockwell et al., 2017; Feng et al., 2020). […]
# cultured FECD CECs = test: RSL3/erastin-induced ferroptosis assay, cell viability by MTS, cultured FECD CECs; format: cell-based, human; conditions: 100 μM DFO, 1 μM RSL3, MTS over 8 hours
# Method: as §1
# FIGS. 5A-5B. FECD-associated ferroptosis is prevented by ubiquinol nanoparticles (NPs) and SOD2 supplementation. […] After incubating another 24 hours (68 hours total), cell viability in each culture was quantified using MTS assays.
# as §2
# Col8a2^Q455K mice = conditions: 0.2% via chow vs normal chow; cited from earlier work
smiles,measurement,setting,value
CCOc1ccccc1-n1c(C(C)N2CCN(C(=O)COc3ccc(Cl)cc3)CC2)nc2ccccc2c1=O (stereo not shown) [erastin],sensitivity of cells to induced ferroptosis,B4G12 CECs; B4G12 cells,sensitive
CC(=O)N(O)CCCCCNC(=O)CCC(=O)N(O)CCCCCNC(=O)CCC(=O)N(O)CCCCCN [deferoxamine],protection from ferroptosis by Fe chelation (percent cell viability over time),cultured FECD CECs,became less effective in protecting cultured FECD CECs from ferroptosis
same,protection from ferroptosis by Fe chelation (percent cell viability over time),"B4G12 CECs; 100 μM DFO, 1 μM RSL3, MTS over 8 hours, B4G12",prevents ferroptosis
[Li] [Lithium],clinical markers of CEC health,Col8a2^Q455K mice,increase clinical markers of CEC health
